From patent CN117820486A
These are yes or no findings as the source states them, for the method shown. Some entries that bind do so weakly or less than the wild type.

Experiments:
人源HLA-G1 (human) = 人源HLA-G1 (human) (UniProt P17693); experiment: flow cytometry on COS7-HLAG1 cells
人源HLA-G5蛋白 (human) = 人源HLA-G5蛋白 (human) (UniProt P17693); experiment: ELISA on plate-coated human HLA-G5 protein

B1: 嵌合抗HLA-G抗体27G8 (antibody, V domains shown)
VH: EVQLQQSGPELVKPGASVKMSCKTSRSSFTEYTMQWVKQRHGKSLEWIGGIIPNNGAPTYNQKFKGKATLTVDKSSSMAFMELRSLTSEDSAVYFCARGGREEFGPYYFDFWGQGTTLTVSS
VL: DVVLTQIPLSLPVSLGDRASISCRSSQRLVHSNGYTHLHWYLQKPGQSPKLLIYKVSNRFSGVPDRFSGSGSGTDFTLKISRVEAEDLGVYFCSQSTFVPWTFGGGTKLEFK
With B1 the binding (人源HLA-G1 (human)) was “binds” and the binding (人源HLA-G5蛋白 (human)) was “binds”.
